{
  "source": "PubChem BioAssay AID493014",
  "about": "(National Center for Advancing Translational Sciences (NCATS), 2011)",
  "assay": "qHTS Assay to Find Inhibitors of Chronic Active B-Cell Receptor Signaling",
  "conditions": "ABC-DLBCL IkBa-CBG/CBR reporter, luminescence ratio (green luciferase fused to IkBa over red control in TMD8 lymphoma cells), 4 h",
  "how_it_was_run": "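Compounds up to 46 uM were incubated four hours with TMD8 cells whose green CBG68 luciferase is fused to IkappaBalpha; red CBR luminescence normalised the signal, and concentration-effect curves were fitted to fusion, red and ratio data.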",
  "key": {"[1]": {"conditions": "measured here: CBR red luminescence, cell number"}},
  "note": "Where “and” joins values, the source holds several entries; their conditions need not be identical. Equal entries are not always repeated. The list shows a part of the results. Shown are side measurements of this screen, not its main read-out; they come without a call. Compounds called inactive in the main read-out are mostly missing here. Potencies come from curve fits of mixed quality, noted in brackets.",
  "data": [
    {"molecule": "CCOc1ccc(NC(=O)CN(C)C(=O)CCCOc2ccc(Br)cc2)cc1OCC", "values": [
      {"measurement": "AC50", "setting": "[1]", "result": "6.51 µM [falling, single point]"}
    ]},
    {"molecule": "O=C(/C=C/c1cccc(F)c1)OCC(=O)c1ccc[nH]1", "values": [
      {"measurement": "AC50", "setting": "[1]", "result": "0.58 µM [rising, single point]"}
    ]},
    {"molecule": "O=C(Nc1ccc2c(c1)OCCO2)c1ccc(Cl)c(Cl)c1", "values": [
      {"measurement": "AC50", "setting": "[1]", "result": "15.8 µM [falling, partial curve]"}
    ]},
    {"molecule": "O=C(/C=C/c1ccco1)Nc1cccnc1", "values": [
      {"measurement": "AC50", "setting": "[1]", "result": "35.5 µM [falling, single point]"}
    ]},
    {"molecule": "CSc1nnc(-c2ccc(O)cc2)n1C", "values": [
      {"measurement": "AC50", "setting": "[1]", "result": "3.98 µM [rising, full curve, poor fit]"}
    ]},
    {"molecule": "O=C(COc1cccc2ccccc12)N1c2ccccc2CCc2ccccc21", "values": [
      {"measurement": "AC50", "setting": "[1]", "result": "12.6 µM [falling, partial curve, poor fit]"}
    ]},
    {"molecule": "CCCCNC(=O)[C@@](CC)(ONc1ccccc1C(F)(F)F)c1cccc2ccccc12", "values": [
      {"measurement": "AC50", "setting": "[1]", "result": "6.51 µM [rising, full curve, poor fit]"}
    ]},
    {"molecule": "Cc1cc(OCc2cc(C(=O)N3CCCCCC3)no2)cc(C)c1Cl", "values": [
      {"measurement": "AC50", "setting": "[1]", "result": "6.31 µM [rising, single point]"}
    ]},
    {"molecule": "O=C(O)CSc1cccc2cccnc12", "values": [
      {"measurement": "AC50", "setting": "[1]", "result": "1.46 µM [rising, partial curve]"}
    ]},
    {"molecule": "c1ccc(-c2noc(-c3ccc4ccccc4c3)n2)nc1", "values": [
      {"measurement": "AC50", "setting": "[1]", "result": "1.3 µM [falling, full curve]"}
    ]},
    {"molecule": "O=C(C1CCN(S(=O)(=O)c2ccc(Br)s2)CC1)N1CCN(C2CCCCC2)CC1", "values": [
      {"measurement": "AC50", "setting": "[1]", "result": "35.5 µM [falling, single point]"}
    ]},
    {"molecule": "CCNC(=O)CN(c1ccc(Oc2ccccc2)cc1)S(=O)(=O)c1ccccc1", "values": [
      {"measurement": "AC50", "setting": "[1]", "result": "6.31 µM [rising, partial curve, poor fit]"}
    ]},
    {"molecule": "O=C(COc1ccccc1[N+](=O)[O-])Nc1ccc(N2CCN(C(=O)c3cccs3)CC2)cc1", "values": [
      {"measurement": "AC50", "setting": "[1]", "result": "17.8 µM [falling, single point]"}
    ]},
    {"molecule": "O=C(C[C@H]1C[C@H](C(=O)N2CCCCC2)[C@@]2(CCc3ccccc3)c3[nH]c4ccc(Cl)cc4c3CCN2C1=O)NCCC1=CCCCC1", "values": [
      {"measurement": "AC50", "setting": "[1]", "result": "4.11 µM [rising, full curve, poor fit]"}
    ]},
    {"molecule": "Cc1occc1C(=O)Nc1cccc2ccccc12", "values": [
      {"measurement": "AC50", "setting": "[1]", "result": "18.4 µM [falling, partial curve, poor fit]"}
    ]},
    {"molecule": "CC(C)(C)c1ccc(Cn2nnc3c(=O)[nH]c(C4CCCN(C(=O)Cc5cccs5)C4)nc32)cc1", "note": "(stereo unspecified)", "values": [
      {"measurement": "AC50", "setting": "[1]", "result": "17.8 µM [falling, single point]"}
    ]},
    {"molecule": "O=C(COc1ccc2c(-c3ccccc3)cc(=O)oc2c1)NCCCN1CCOCC1", "values": [
      {"measurement": "AC50", "setting": "[1]", "result": "14.1 µM [rising, single point]"}
    ]},
    {"molecule": "CN=C1S/C(=C\\c2ccc(N3CCOCC3)c(F)c2)C(=O)N1C", "values": [
      {"measurement": "AC50", "setting": "[1]", "result": "23.1 µM [rising, single point]"}
    ]},
    {"molecule": "CC(=O)C1=C(C)OC2(O)c3ccccc3C(=O)C12O", "note": "(stereo unspecified)", "values": [
      {"measurement": "AC50", "setting": "[1]", "result": "15.8 µM [rising, single point]"}
    ]},
    {"molecule": "COc1ccc(C(=O)C2CCCN(C(=O)CCc3scnc3C)C2)c(C)c1", "note": "(stereo unspecified)", "values": [
      {"measurement": "AC50", "setting": "[1]", "result": "7.08 µM [falling, partial curve, poor fit]"}
    ]},
    {"molecule": "Cc1cc(C)c(C#N)c(SCc2nnc(-c3ccccc3[N+](=O)[O-])o2)n1", "values": [
      {"measurement": "AC50", "setting": "[1]", "result": "1.41 µM [rising, partial curve, poor fit]"}
    ]},
    {"molecule": "C/C(=N\\NC(=O)COc1ccccc1[N+](=O)[O-])c1cccc(NC(=O)c2ccncc2)c1", "values": [
      {"measurement": "AC50", "setting": "[1]", "result": "1.12 µM [falling, partial curve]"}
    ]},
    {"molecule": "CC(C)CC(=O)NCCCN1CCN(CCCNC(=O)CC(C)C)CC1", "values": [
      {"measurement": "AC50", "setting": "[1]", "result": "23.1 µM [rising, single point]"}
    ]},
    {"molecule": "CCOC(=O)C1=C(O)C(=O)N(Cc2cccnc2)C1c1ccc(C)cc1", "note": "(stereo unspecified)", "values": [
      {"measurement": "AC50", "setting": "[1]", "result": "10 µM [rising, partial curve, poor fit]"}
    ]},
    {"molecule": "O=C(NCc1ccco1)C(=O)NCc1ccccc1Cl", "values": [
      {"measurement": "AC50", "setting": "[1]", "result": "18.4 µM [falling, partial curve]"}
    ]},
    {"molecule": "S=C(Nc1ccccc1)Nc1ccc2cn[nH]c2c1", "values": [
      {"measurement": "AC50", "setting": "[1]", "result": "35.5 µM [falling, single point]"}
    ]},
    {"molecule": "CCOc1ccc(-n2cc(-c3ccccc3)c3c(=S)nc[nH]c32)cc1", "values": [
      {"measurement": "AC50", "setting": "[1]", "result": "14.1 µM [rising, single point]"}
    ]},
    {"molecule": "OCC#CCSc1nnc(-c2ccncc2)o1", "values": [
      {"measurement": "AC50", "setting": "[1]", "result": "0.00517 µM [falling, full curve, poor fit]"}
    ]},
    {"molecule": "C=CCn1c(N)cc(=O)nc1SCC(=O)N(c1ccccc1)c1ccccc1", "values": [
      {"measurement": "AC50", "setting": "[1]", "result": "15.8 µM [rising, partial curve, poor fit]"}
    ]},
    {"molecule": "Cn1c(=O)n(C)c2cc(NC(=O)c3ccccc3NS(C)(=O)=O)ccc21", "values": [
      {"measurement": "AC50", "setting": "[1]", "result": "22.4 µM [falling, partial curve, poor fit]"}
    ]},
    {"molecule": "CC(=O)[C@H]1CC[C@H]2[C@@H]3CCC4=CC(=O)CC[C@]4(C)[C@H]3CC[C@]12C", "values": [
      {"measurement": "AC50", "setting": "[1]", "result": "3.26 µM [rising, partial curve, poor fit] and 29.1 µM [rising, partial curve, poor fit]"},
      {"measurement": "AC50", "setting": "measured here: IkBa-CBG green luminescence", "result": "5.17 µM [falling, full curve, poor fit]"}
    ]},
    {"molecule": "Cc1ccc(/C=N/NC(=O)c2ccc(Br)o2)s1", "values": [
      {"measurement": "AC50", "setting": "[1]", "result": "29.1 µM [falling, single point]"}
    ]},
    {"molecule": "COc1ccc(Nc2cc(C(=O)NCCCN3CCN(C)CC3)c3ccccc3n2)cc1", "values": [
      {"measurement": "AC50", "setting": "[1]", "result": "11.2 µM [falling, partial curve]"}
    ]},
    {"molecule": "Cc1ccc(NC(=O)c2ccc(NS(=O)(=O)c3c(C)noc3C)cc2)cc1C", "values": [
      {"measurement": "AC50", "setting": "[1]", "result": "29.1 µM [falling, single point]"}
    ]},
    {"molecule": "CC(=O)O/N=C1\\C(=O)N(Cc2ccc(C)cc2)c2ccccc21", "values": [
      {"measurement": "AC50", "setting": "[1]", "result": "0.1 µM [falling, full curve, poor fit]"}
    ]},
    {"molecule": "Cc1cccc(-n2cnc3cc(C(=O)NC4CCCCCC4)ccc32)c1", "values": [
      {"measurement": "AC50", "setting": "[1]", "result": "5.62 µM [rising, full curve, poor fit]"}
    ]},
    {"molecule": "O=C(OCC(=O)N1CCc2ccccc21)c1ccncc1", "values": [
      {"measurement": "AC50", "setting": "[1]", "result": "0.58 µM [falling, full curve, poor fit]"}
    ]},
    {"molecule": "O=C(CCCNS(=O)(=O)c1cccc2nsnc12)NC1CCCCC1", "values": [
      {"measurement": "AC50", "setting": "[1]", "result": "22.4 µM [falling, single point]"}
    ]},
    {"molecule": "CO[C@@H]1O[C@@H]2COC(c3ccccc3)O[C@@H]2[C@@H](OC)[C@@H]1O", "note": "(stereo partly specified)", "values": [
      {"measurement": "AC50", "setting": "[1]", "result": "1.12 µM [rising, partial curve, poor fit]"}
    ]},
    {"molecule": "COc1cc(C(=O)NNC(=O)c2ccc3ccccc3n2)cc(OC)c1OC", "values": [
      {"measurement": "AC50", "setting": "[1]", "result": "14.6 µM [rising, partial curve]"}
    ]}
  ]
}
